PubChem BioAssay AID504804 | Drosophila RNAi Screening Center | 2011

Screen: 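dsRNAs that improve Kc cell survival under doxorubicin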 (primary screen)
Cells: Drosophila Kc cells
Reagent: long dsRNA against Drosophila genes, 0.5 µg dsRNA per well
Duration: 96 h (48 h knock-down, then 48 h drug)
Conditions: doxorubicin 5 µg/ml for 48 h, added 48 h after dsRNA
Measured: 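Viability measured as cellular ATP by luminescence after 48 h knock-down then 48 h doxorubicin at 5 µg/ml; unnormalised plate counts for each replicate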
Direction: raw ATP luminescence: higher = more viable cells, protection from doxorubicin
Call rule: 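z-score of 2 or more over plate mean in both duplicates, retained only when retests and separate dsRNAs confirm the protection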
In all, the deposit lists about 19,000 reagents; this is a random part of those with a known target gene and a result. Of all reagents, 47 (0.25%) got an active call. 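Signals are raw, not normalised; exact z-scores behind calls not deposited; actives needed confirmation, so some wells reaching 2 SD are inactive.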 A plus sign joins genes that one reagent is predicted to hit.

| gene | dsRNA | raw ATP luminescence, replicate 1 | raw ATP luminescence, replicate 2 | Call |
| --- | --- | --- | --- | --- |
| boss | DRSC16916 | 89700 | 90330 | inactive |
| CG10214 | DRSC14213 | 27300 | 29663 | inactive |
| dUTPase | DRSC01998 | 77520 | 71493 | inactive |
| CG15226 (retired record) | DRSC03829 | 80533 | 73687 | inactive |
| CG15226 (retired record) | DRSC04233 | 72617 | 42110 | inactive |
| Rdh | DRSC08063 | 32330 | 1.80e5 | inactive |
| Rdh | DRSC08434 | 34767 | 47083 | inactive |
| Obp46a | DRSC06220 | 54453 | 80550 | inactive |
| cyr | DRSC18017 | 42010 | 60740 | inactive |
| cyr | DRSC18018 | 37670 | 38230 | inactive |
| cyr | DRSC18021 | 41830 | 49190 | inactive |
| l(3)S110416 (retired record) | DRSC17094 | 37747 | 40693 | inactive |
| CG32536 + CG32537 | DRSC20074 | 4.12e5 | 2.99e5 | inactive |
| Semp1 | DRSC01874 | 64367 | 73303 | inactive |
| Grip71 | DRSC02042 | 46827 | 41330 | inactive |
| atk | DRSC11418 | 77887 | 62223 | inactive |
| atk | DRSC11769 | 61900 | 57863 | inactive |
| Nop60B | DRSC04627 | 69743 | 67833 | inactive |
| CG11816 | DRSC19428 | 1.67e5 | 1.90e5 | inactive |
| CG17350 | DRSC02611 | 50413 | 48507 | inactive |
| Hers + amn | DRSC20306 | 3.48e5 | 3.07e5 | inactive |
| Cyp4e2 | DRSC07371 | 75907 | 52817 | inactive |
| Sems | DRSC11626 | 62950 | 61943 | inactive |
| CG11382 | DRSC18624 | 49460 | 38420 | inactive |
| peng | DRSC20583 | 2.63e5 | 2.52e5 | inactive |
| CG4049 | DRSC04443 | 66980 | 47647 | inactive |
| slim | DRSC06921 | 68757 | 68800 | inactive |
| CG31787 | DRSC01632 | 2.32e5 | 2.21e5 | inactive |
| CG14401 | DRSC02385 | 63663 | 56867 | inactive |
| CRIF | DRSC11811 | 65103 | 54757 | inactive |
| MFS14 | DRSC06524 | 75353 | 66053 | inactive |
| CG42531 | DRSC05318 | 91723 | 95740 | inactive |
| eIF4E6 | DRSC14853 | 55170 | 59340 | inactive |
| CSN1a | DRSC01951 | 46290 | 82523 | inactive |
| Cyp6a20 | DRSC07380 | 72273 | 69347 | inactive |
| yl | DRSC20387 | 4.02e5 | 3.29e5 | inactive |
| CG4393 | DRSC15573 | 86360 | 69770 | inactive |
| CG14903 | DRSC15024 | 1.32e5 | 65160 | inactive |
| bumpel | DRSC16100 | 55180 | 58330 | inactive |
| CG11037 | DRSC11631 | 82590 | 77940 | inactive |
| CG3323 | DRSC18303 | 45060 | 43820 | inactive |
| nudC | DRSC11096 | 53677 | 59043 | inactive |
| nudC | DRSC11097 | 62747 | 56137 | inactive |
| SmydA-8 | DRSC18797 | 27140 | 36160 | inactive |
| CG10681 | DRSC09777 | 34887 | 34677 | inactive |
| CG18853 | DRSC06795 | 34487 | 1.21e5 | inactive |
| wls | DRSC10605 | 41347 | 51723 | inactive |
| CG18810 | DRSC02701 | 56280 | 44950 | inactive |
| CG14054 | DRSC17909 | 46910 | 58590 | inactive |
| Dscam2 | DRSC08869 | 1.91e5 | 1.72e5 | inactive |
| Dscam2 | DRSC10198 | 65710 | 87163 | inactive |
| Dscam2 | DRSC11018 | 59090 | 81417 | inactive |
| Dscam2 | DRSC11019 | 58250 | 73097 | inactive |
| Klp67A + CG34456 | DRSC10420 | 81187 | 63253 | inactive |
| Mad1 | DRSC07561 | 51710 | 43420 | inactive |
| wnd | DRSC09626 | 63573 | 54010 | inactive |
| wnd | DRSC11046 | 21527 | 23520 | inactive |

Reprinted from the listing (8 entries):
| gene | dsRNA | raw ATP luminescence, replicate 1 | raw ATP luminescence, replicate 2 | Call |
| --- | --- | --- | --- | --- |
| eIF4E6 | DRSC14853 | 55170 | 59340 | inactive |
| CSN1a | DRSC01951 | 46290 | 82523 | inactive |
| Cyp6a20 | DRSC07380 | 72273 | 69347 | inactive |
| yl | DRSC20387 | 4.02e5 | 3.29e5 | inactive |
| CG4393 | DRSC15573 | 86360 | 69770 | inactive |
| CG14903 | DRSC15024 | 1.32e5 | 65160 | inactive |
| bumpel | DRSC16100 | 55180 | 58330 | inactive |
| CG11037 | DRSC11631 | 82590 | 77940 | inactive |
